Measurements: PubChem BioAssay AID652054 (National Center for Advancing Translational Sciences (NCATS), 2013)
In all, about 360,000 compounds went through this assay and about 9,100 (2.5%) were called active. This list was built around the results that the source calls inconclusive (neither active nor inactive); the mix of calls is not that of the screen. Rule as the data show it: active = max response below about -50%; inconclusive = no clear call, values can overlap the other calls; inactive = above that.

Chains of the proteins cited; added tags and fusions are not shown.
UniProt P35462, whole entry, looked up: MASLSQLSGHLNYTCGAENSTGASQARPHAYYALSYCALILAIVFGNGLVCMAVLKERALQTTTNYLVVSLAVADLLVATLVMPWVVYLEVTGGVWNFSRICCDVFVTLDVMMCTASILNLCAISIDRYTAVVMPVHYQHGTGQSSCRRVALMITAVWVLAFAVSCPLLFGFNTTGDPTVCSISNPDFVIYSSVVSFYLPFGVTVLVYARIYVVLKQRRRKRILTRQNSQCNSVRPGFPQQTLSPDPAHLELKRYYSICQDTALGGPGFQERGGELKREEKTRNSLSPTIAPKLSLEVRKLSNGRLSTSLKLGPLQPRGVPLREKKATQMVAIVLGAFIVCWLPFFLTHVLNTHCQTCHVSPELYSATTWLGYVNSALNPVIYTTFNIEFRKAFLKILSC

The compounds below were run against D(3) dopamine receptor (Homo sapiens) (UniProt P35462) (assay: qHTS of D3 Dopamine Receptor Antagonist: qHTS). Details: D3R cells, DiscoveRx beta-arrestin luminescence, antagonist mode; stronger effect = lower value.
Method in brief: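 Cells plated overnight at 1500 cells/well, then exposed to library compounds with dopamine controls for 90 minutes at 37 degrees C. DiscoveRx reagent added for 30–60 minutes at room temperature; luminescence read, quantitative HTS format.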
% is scaled to controls: 0 for no effect and ±100 for the full control effect.

Row | Compound | max response, negative = inhibition
1 | O=C(NC1CCS(=O)(=O)C1)/C(=C\c1ccco1)NC(=O)c1ccccc1 (configuration not stated) | inactive: -18.3%
2 | COc1ccc(OC)c(/C=N/NC(=O)CCc2ccc(O)c(O)c2)c1 | inconclusive: -43.2%
3 | COc1cc(-c2nn3c(-c4ccccc4)nnc3s2)cc(OC)c1OC | inconclusive: -42.3%
4 | CC1([N+](=O)[O-])COC2(CCCCC2)OC1 | active: -50.3%
5 | O=C1c2[nH]nc(-c3ccccc3O)c2C(c2ccc(F)cc2)N1Cc1ccco1 (configuration not stated) | inactive: -6.93%
6 | O=C(NCc1cccc(F)c1)Nc1nnc([C@H]2C[C@H](O)[C@@H](CO)O2)s1 | inactive: 8.13%
7 | Cc1cccc(N2CCN(C(=O)c3ccc(Cl)c(S(=O)(=O)N4CCc5ccccc5C4)c3)CC2)c1C | inactive: -11%
8 | N#Cc1c2c(c(NCc3cccnc3)n3c1nc1ccccc13)CCC2 | active: -52.7%
9 | CN(Cc1ccccc1)Cc1c(O)ccc2ccccc12 | inactive: 1.51%
10 | Cc1ccc2nc(SC(C(=O)c3ccccc3)c3ccccc3)nc(C)c2c1 (configuration not stated) | inconclusive: -37%
11 | Cc1cc(C)c2nc(NC(=O)[C@@H](NC(=O)c3cccc(S(=O)(=O)N4CCOCC4)c3)C(C)C)sc2c1 | inconclusive: -32.7%
12 | COc1ccc(C=C2NC(=S)NC2=O)cc1 | inconclusive: -39%
13 | Cc1ccc(C)c(N2CCN(C(=O)C3CCCN(S(=O)(=O)c4c(C)[nH]c(=O)[nH]c4=O)C3)CC2)c1 (configuration not stated) | inactive: 19.7%
14 | CCCCSc1nc2ccc(Nc3nc(N4CCOCC4)nc(N4CCOCC4)n3)cc2s1 | inconclusive: -31.1%
15 | COc1ccc(N)cc1NC(=O)CN1CCOCC1 | inactive: 60.4%
16 | COc1cc(OC)c(OC)cc1CN1CCN(c2ccccc2OC)CC1 | active: -66.4%
17 | COc1cc(/C=C2/SC(=S)N(Cc3ccccc3)C2=O)ccc1OCC(=O)O | inconclusive: -46.4%
18 | Cc1cccc(OCCCN2C(=O)C(=O)c3cc(C)ccc32)c1 | inconclusive: -40.6%
19 | COc1cc2c(cc1OC)C(C)N(C(=O)Cn1ncc3c1-c1ccccc1OC3)CC2 (configuration not stated) | inconclusive: -36.5%
20 | COc1ccc2cc(CN(CC3COCCO3)S(=O)(=O)c3ccc(Cl)cc3)c(=O)[nH]c2c1 (configuration not stated) | inconclusive: -47.9%
21 | O=C(CSc1nc2ccccc2[nH]1)c1ccco1 | inconclusive: -36.4%
22 | COc1ccc2cc(-c3cc(C(=O)OCC(=O)Nc4c(C)n(C)n(-c5ccccc5)c4=O)c4ccccc4n3)ccc2c1 | inactive: 43.5%

A draw from above in order of SMILES length, rising.
Row | Compound | max response, negative = inhibition
12 | COc1ccc(C=C2NC(=S)NC2=O)cc1 | inconclusive: -39%
4 | CC1([N+](=O)[O-])COC2(CCCCC2)OC1 | active: -50.3%
16 | COc1cc(OC)c(OC)cc1CN1CCN(c2ccccc2OC)CC1 | active: -66.4%
1 | O=C(NC1CCS(=O)(=O)C1)/C(=C\c1ccco1)NC(=O)c1ccccc1 (configuration not stated) | inactive: -18.3%

Next part.

Row | Compound | max response, negative = inhibition
23 | Cc1ccc(SC[C@H](Cc2ccccc2)N2CCN(CCc3ccccc3)CCC2=O)cc1 | active: -58.5%
24 | COc1ccc(N2CCCC2)c(NC(=O)COc2ccccc2Cl)c1 | inactive: 15%
25 | COc1ccc(/C=C(\NC(=O)c2ccccc2)C(=O)NCCN2CCOCC2)cc1OC | inactive: -3.81%
26 | CCOc1ccc(/C=N/O)cc1 | inconclusive: -30.3%
27 | CCCN1CCN(CCCNC(=O)CCN2C(=O)COc3ccccc32)CC1 | inactive: -0.3%
28 | CCC(=O)OCc1cc2cccc(C)c2[nH]c1=O | inconclusive: -32.6%
29 | Cc1c2n(c3ccccc13)CCN(C)C2 | inconclusive: -38.2%
30 | COc1ccc2c(=O)cc(-c3ccncc3)oc2c1OC | inconclusive: -30.8%
31 | CCCN1C(=O)/C(=C/c2ccc(N3CCCC3)c(C)c2)NC1=S | inconclusive: -42.7%
32 | Cc1cc(NC(=O)C(C)SCC(=O)N(Cc2ccccc2)c2ccccc2)no1 (configuration not stated) | inactive: 22.7%
33 | O=[N+]([O-])c1ccccc1Oc1ccc(S(=O)(=O)N2CCOCC2)cc1 | inconclusive: -32.5%
34 | NC(=O)CC(NC(=O)Cc1cccc2ccccc12)c1ccc(NCCc2ccc(F)cc2)c([N+](=O)[O-])c1 (configuration not stated) | inconclusive: -31.4%
35 | COc1ccccc1C(C)NCC(=O)NCc1ccc(C)cc1 (configuration not stated) | active: -58.5%
36 | CCCC(=O)N/C(N)=N/c1nc(C)c2cc(C)ccc2n1 | inactive: 6.22%
37 | O=C(NCC1CCCO1)C(c1cccs1)N(Cc1ccccc1Cl)C(=O)c1ccc(-c2ccccc2)[nH]1 (configuration not stated) | inconclusive: -32.5%
38 | CCNC(=O)C1(C)CCN(Cc2cccc(C(F)(F)F)c2)C1 (configuration not stated) | inconclusive: -35.1%
39 | COc1ccc(/C=C/C(=O)NC(=S)NNC(=O)Cc2cccs2)cc1OC | active: -71.6%
40 | Cc1ccc2nc(N3CCN(CCO)CC3)nc(-c3ccccc3)c2c1 | inconclusive: -47.5%
41 | Cc1ccc(S(=O)(=O)c2c(N)n(Cc3ccco3)c3nc4ccccc4nc23)cc1 | inconclusive: -46.4%
42 | Cc1ccc2sc(N(CCCN(C)C)C(=O)c3ccc(S(=O)(=O)N4CCCCCC4)cc3)nc2c1C | inconclusive: -32.4%
43 | Cc1nc2ccccc2c(=O)n1/N=C/c1ccccc1 | inactive: 6.6%
44 | COc1ccc(CNC(=O)CSc2ncn[nH]2)cc1 | inconclusive: -32.7%

Row | Compound | max response, negative = inhibition
45 | Cc1ccc(S(=O)(=O)N2CCOCC2)cc1NC(=O)CN1C(=O)NC(C)(c2ccc(Cl)cc2Cl)C1=O (configuration not stated) | inconclusive: -31.3%
46 | O=C(O)c1ccccc1OC(C(=O)Nc1cc(Cl)cc(Cl)c1)c1ccccc1 (configuration not stated) | inactive: 10%
47 | CCOc1ccccc1NC(=O)c1nc(S(=O)(=O)Cc2ccccc2)ncc1Cl | active: -107%
48 | CC(C)C[C@H](NC(=O)[C@@H]1Cc2ccccc2CN1)C(=O)Nc1ccc(C(C)C)cc1 | inconclusive: -42.1%
49 | Cc1cccc(/C=N/n2c(-c3ccccc3)n[nH]c2=S)c1O | inconclusive: -32.8%
50 | CSc1nnc(-c2sc3cc(C(F)(F)F)cnc3c2-c2ccccc2)n1C | inconclusive: -45.5%
51 | Cc1cc(C(F)(F)F)nn1Cc1n[nH]c(=S)n1Cc1ccccc1 | inconclusive: -33.1%
52 | C=CCN1C(=O)C2(c3ccccc31)C1CCCC=C1C(C#N)=C(N)C2(C#N)C#N (configuration not stated) | inconclusive: -49.4%
53 | CN(CC(=O)Nc1ccc(S(N)(=O)=O)cc1)C1CCCCC1 | inactive: 4.82%
54 | Cn1nccc1NC(=O)Nc1ccc(Cl)cc1 | inconclusive: -39.6%
55 | CCC1=NN(C(=O)C(=O)Nc2ccccc2OC)C(O)(C(F)(F)F)C1 (configuration not stated) | inactive: 20.5%
56 | CCC1=C2CC[C@H]3C(=O)N(CC)C(=O)[C@H]3[C@H]2[C@@]2(Cc3ccccc3)C(=NCc3ccccc3)OC(=O)N2C1=O | inconclusive: -45.1%
57 | COc1ccc(C)cc1NC(=O)C1CCN(C(=O)c2ccc(C(C)(C)C)cc2)CC1 | inconclusive: -34.3%
58 | Cn1c(-c2ccc(F)cc2)cnc1NCc1cccc(F)c1 | inconclusive: -48.2%
59 | CCc1nc2ccc(C(=O)NCCCN3CCCC3=O)cn2c1N(C)C(=O)C1CCCCC1 | inactive: 0.403%
60 | Cc1[nH]n(C(N)=S)c(=O)c1N=Nc1ccc(S(=O)(=O)N2CCCC2)cc1 | active: -78.1%
61 | COc1ccc(NC(=O)CSc2c3c(nc4ccccc24)CCCC3)c(OC)c1 | inconclusive: -36.9%
62 | O=C1OC(=O)c2cc([N+](=O)[O-])ccc21 | inconclusive: -47.5%
63 | CCOC(=O)C1CN(S(=O)(=O)c2ccc(OC)cc2)c2cc(Cl)ccc2O1 (configuration not stated) | inconclusive: -31.9%
64 | CCn1ccc(C(=O)Nc2cccc(Cl)c2)n1 | inactive: -6.59%
65 | CCOC(=O)n1c(SCC(N)=O)nc2ccccc21 | inconclusive: -41.3%
66 | O=C(O)C1CCN(C(=O)OCc2ccccc2)CC1 | inconclusive: -34.6%

Row | Compound | max response, negative = inhibition
67 | Cc1ccccc1NC(=O)c1ccc(CN2CCc3ccccc3C2)cc1 | active: -76.5%
68 | COc1ccccc1/C=C/CN1CCCC(CCC(=O)NCc2ccccc2F)C1 (configuration not stated) | inconclusive: -30.3%
69 | CC(C)c1ccc(/C=C(\c2nc3ccccc3[nH]2)S(=O)(=O)c2ccccc2)cc1 | active: -73%
70 | O=C(CCNC(=O)Cn1ccc2ccccc2c1=O)NCCN1CCN(c2cccc(Cl)c2)CC1 | active: -60.5%
71 | COc1cc(OC)nc(Nc2nc(C(N)COCc3ccccc3)cs2)n1 (configuration not stated) | active: -74%
72 | CC1C/C(=N/NC(=O)c2ccc(CSc3nc4ccccc4[nH]3)cc2)CC(C)(C)C1 (configuration not stated) | inconclusive: -38.4%
73 | Brc1ccc(OCCCN2CCOCC2)cc1 | inconclusive: -31.8%
74 | COc1ccc(C(=S)Nc2ccc(C)cc2)cc1 | active: -67.4%
75 | COc1ccc(OC(F)(F)F)cc1CC1(C)C(=O)Nc2ccc(S(=O)(=O)NC3CCCCC3)cc21 (configuration not stated) | inactive: 18.3%
76 | COc1ccccc1NS(=O)(=O)c1cccc(C(=O)NN=C2CCCCCC2)c1 | inactive: -14.4%
77 | COc1cc(F)ccc1-c1cc(C(=O)NCC2CCCCC2)[nH]n1 | active: -75.3%
78 | O=S(=O)(Cc1ccc(Cl)cc1)N1CCCC1 | inactive: -10%
79 | Cn1c(=O)c2c(nc(SCCN3CCCCC3)n2Cc2ccc(Cl)cc2)n(C)c1=O | active: -51.3%
80 | CCCCCc1cc(=O)oc2c(C(CCN3CCN(c4ccccc4)CC3)c3ccc(N(C)C)cc3)c(OC)cc(OC)c12 (configuration not stated) | active: -51.7%
81 | O=C(CCc1ccc(S(=O)(=O)NCc2ccccc2)cc1)NCc1cccnc1 | inactive: 3.88%
82 | CC1(C(=O)NS(=O)(=O)c2cccc(Cl)c2)CCN1C(=O)CCc1ccccc1 (configuration not stated) | inconclusive: -41%
83 | Cc1nn(C)cc1/C=N/NC(=O)c1sc2ccccc2c1Cl | inconclusive: -34.8%
84 | O=C(CSc1nnc(-c2cnccn2)n1Cc1ccco1)c1ccc(Cl)cc1 | active: -63.4%
85 | C[C@@]12C(=O)Nc3ccccc3C(=O)N1[C@H]1c3cc(Br)ccc3OC[C@@H]1[C@@H]2c1ccccc1 | inactive: -15.5%
86 | Cc1cc(Nc2cccc(Cl)c2)n2ncnc2n1 | inconclusive: -33.6%
87 | S=c1[nH]nc(CSCCOc2ccc(Cl)cc2Cl)o1 | inconclusive: -32.7%
